Source: PubChem BioAssay AID602196 (INSERM, 2012)

Test: 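Genes whose knock-down alters cisplatin killing of lung cancer cells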
System: human A549 lung cancer cells
Reagent: siRNA pair against human genes
Time to read-out: 48 h transfection before cisplatin; time from cisplatin to read-out not stated
Challenge: cisplatin at a dose killing half of control-siRNA cells; exact dose and duration not given
Measured: 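Cisplatin cell death as a shift from the 50% death seen with control siRNA; siRNAs toxic or growth-blocking alone scored 0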
Reading the numbers: two-siRNA summed score (-2 to +2): higher = both siRNAs protect from cisplatin killing; -2 means both sensitise; mean protection from cisplatin (shift in death) and protection from cisplatin (shift in death), siRNA C: higher = protection from cisplatin killing
Hit rule: 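Each siRNA scores 0 if harmful alone by LDH or WST-1, otherwise +1 if it reduces and -1 if it increases cisplatin killing; a gene is active when both siRNAs agree (sum +2 or -2)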
Meaning of the calls: active = both siRNAs shift cisplatin killing the same way; inactive = no consistent shift, or siRNA harmful alone
The whole screen tested about 23,000 reagents; this is an unselected part. 455 of all reagents (2%) were called active. 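Active includes both protection and sensitisation; some change values fall well beyond the stated -50 to +50 range.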 The numbers tell different reagents against one gene apart. Further read-outs or replicates are left out here. No sequences are given here. The record does not give: the amount of reagent.

target gene	reagent no.	two-siRNA summed score (-2 to +2)	mean protection from cisplatin (shift in death) (%)	protection from cisplatin (shift in death), siRNA C (%)	Call
TLE6	1	0	-3.6	-8.3	inactive
AADACL2	1	1	12.3	21.5	inactive
PRPF18	1	0	-10.1	-9.6	inactive
ELAVL2	1	-1	-4.2	0.4	inactive
CASC2	1	2	16.9	19	active
BORCS8-MEF2B	1	-1	-6.7	-20.7	inactive
FLJ20753	1	0	12.5	12.6	inactive
LOC392501	1	0	21.8	13	inactive
IL1RN	1	-1	4	22.4	inactive
RNF130	1	0	13.8	24.7	inactive
OR2B6	1	-1	-4.1	-19.9	inactive
ALDOC	1	0	2.4	-4.7	inactive
CPB2	1	1	11.2	17	inactive
TAS2R41	1	0	6	6.7	inactive
APOBEC3A	1	2	16.5	16.2	active
CALHM5	1	0	-0.3	-9.5	inactive
LOC442560	1	0	2	3.3	inactive
TMEM216	1	0	11.5	8.7	inactive
OR10R2	1	0	3.2	1	inactive
OR10R2	2	2	15.2	16.8	active
KATNB1	1	0	9.4	9.9	inactive
PDIA5	1	0	-18.5	-15.3	inactive
WDR24	1	1	9.8	2.4	inactive
RRAGC	1	0	-3	-3.4	inactive
HSPBAP1	1	0	13.7	18.3	inactive
LOC441059	1	0	8.9	8.3	inactive
LOC390812	1	0	-3.6	15.9	inactive
RXRB	1	1	6.8	2	inactive
FOXF2	1	-2	-11.4	-12.7	active
LOC441761	1	0	6.6	8.6	inactive
MOGAT2	1	0	-1.2	-2.5	inactive
DND1	1	0	3	4.2	inactive
TRIP11	1	1	11.9	5.4	inactive
LOC158830	1	0	16.6	0.4	inactive

Reagents above with an active call, once more:
target gene	reagent no.	two-siRNA summed score (-2 to +2)	mean protection from cisplatin (shift in death) (%)	protection from cisplatin (shift in death), siRNA C (%)	Call
CASC2	1	2	16.9	19	active
APOBEC3A	1	2	16.5	16.2	active
OR10R2	2	2	15.2	16.8	active
FOXF2	1	-2	-11.4	-12.7	active

Next entries follow.
target gene	reagent no.	two-siRNA summed score (-2 to +2)	mean protection from cisplatin (shift in death) (%)	protection from cisplatin (shift in death), siRNA C (%)	Call
ACTR2P2	1	0	7.1	7.6	inactive
LOC346355	1	0	7.4	11.4	inactive
AGO1	1	0	23.8	49.4	inactive
ADNP	1	0	-10	-14.8	inactive
VCY	1	0	3.1	8.7	inactive
LOC441452	1	0	-9.5	-14.5	inactive
DTX3L	1	0	-2.3	7.8	inactive
NRG4	1	0	-0.9	-7.4	inactive
GATA3-AS1	1	0	19	6	inactive
RPS6KB1	1	1	17.7	13.7	inactive
DGCR2	1	-1	-6.6	-29.5	inactive
TRIM47	1	1	14.5	24.6	inactive
LAP3	1	0	13.6	13	inactive
LOC388065	1	0	4.7	-7	inactive
TMEM106B	1	0	3.9	5.8	inactive
SLC38A11	1	1	18.4	12.5	inactive
SNRNP70	1	0	1.3	9.7	inactive
SCARB1	1	0	4.6	0.6	inactive
TSEN34	1	0	-10.5	-15.1	inactive
NXT2	1	-1	-14.9	-22.4	inactive
LOC440503	1	0	8.8	1.3	inactive
LOC387826	1	0	-4.2	-9	inactive
SERPINB9	1	0	4	-25.7	inactive
